{"source": "patent US7745191B2", "about": "“Method of producing heterodimer derivative of protein phosphatase type 2A enzyme” (Tropical Technology Center Ltd., priority 2005, dated 2010)", "molecular_target": "human PP2A A subunit (PR65α/Aα) carrying FLAG tag (FLAG-PR65α/Aα) (human) (UniProt P30153)", "experiment": "co-expression in High Five cells, then two-step co-purification (Ni-NTA agarose, then anti-FLAG M2 affinity gel), confirmed by SDS-PAGE", "note": "These are yes or no findings as the source states them, for the method shown. In cells and extracts the contact can be indirect. Some binding calls cover weakened binding; strength is not graded here.", "data": [{"substance": "catalytic subunit of human PP2A, β-isoform, carrying a polyhistidine tag (His-PP2Acβ) (from UniProt P62714 2-309) (enzyme)", "values": [{"measurement": "binding", "result": "binds"}]}]}
